At least one structure is not confirmed: it was looked up by name or label, or the drawing left a doubt.
System: Bacillus subtilis cells
Assay: Growth inhibition assay in liquid medium, B. subtilis
Type: cell-based
Conditions: LB media, 37° C.
Experimental: Growing in the liquid medium method was selected as the method to test antibacterial activity of SkQ1. Overnight bacterial cells cultures were diluted in fresh LB media. Bacterial cell culture (5×10^6 cells/ml) were inoculated 200 μl into 96-well plates (Eppendorf, Eppendorf AG, Hamburg, Germany) and SkQ1 or CnTPP were added to reach various final concentrations in the range from 0.5 to 200 μM. Cells were left to grow for 21 hours at 37° C. Optical density at 600 nm was measured using an AnthosZenyth 3100 multimode reader (Anthos Labtec, Austria) during incubation.
We selected Ecsherishia coli cells as a Gram-negative model organism and Bacillus subtilis cells as a Gram-positive model organism. SkQ1 was selected as a model compound of formula 1 with antioxidant moiety. To select a proper concentration of a compound of formula 1 we performed growth inhibition assays for several SkQ1 concentrations (see FIGS. 8 A and B). It can be concluded from the results of this experiment that 1 μM SkQ1 is the minimal inhibitory concentration (MIC) for B. subtilis cells.

CCCC[P+](c1ccccc1)(c1ccccc1)c1ccccc1 [C4TPP, butyltriphenylphosphonium]
minimal inhibitory concentration (MIC): could not be reached

— patent US20170128467A1, “ANTIMICROBIAL PHARMACEUTICAL COMPOSITIONS WITH MULTIPLE DRUG RESISTANCE INHIBITING PROPERTIES” (priority 2014, published 2017)
